Measured values published in the supplement of paper PMC10849652.
Some of the results follow.

Chains of the proteins cited; added tags and fusions are not shown. Lines headed by an entry give the natural chain unless they say otherwise; changes in a name come on top.
UniProt Q96AE7: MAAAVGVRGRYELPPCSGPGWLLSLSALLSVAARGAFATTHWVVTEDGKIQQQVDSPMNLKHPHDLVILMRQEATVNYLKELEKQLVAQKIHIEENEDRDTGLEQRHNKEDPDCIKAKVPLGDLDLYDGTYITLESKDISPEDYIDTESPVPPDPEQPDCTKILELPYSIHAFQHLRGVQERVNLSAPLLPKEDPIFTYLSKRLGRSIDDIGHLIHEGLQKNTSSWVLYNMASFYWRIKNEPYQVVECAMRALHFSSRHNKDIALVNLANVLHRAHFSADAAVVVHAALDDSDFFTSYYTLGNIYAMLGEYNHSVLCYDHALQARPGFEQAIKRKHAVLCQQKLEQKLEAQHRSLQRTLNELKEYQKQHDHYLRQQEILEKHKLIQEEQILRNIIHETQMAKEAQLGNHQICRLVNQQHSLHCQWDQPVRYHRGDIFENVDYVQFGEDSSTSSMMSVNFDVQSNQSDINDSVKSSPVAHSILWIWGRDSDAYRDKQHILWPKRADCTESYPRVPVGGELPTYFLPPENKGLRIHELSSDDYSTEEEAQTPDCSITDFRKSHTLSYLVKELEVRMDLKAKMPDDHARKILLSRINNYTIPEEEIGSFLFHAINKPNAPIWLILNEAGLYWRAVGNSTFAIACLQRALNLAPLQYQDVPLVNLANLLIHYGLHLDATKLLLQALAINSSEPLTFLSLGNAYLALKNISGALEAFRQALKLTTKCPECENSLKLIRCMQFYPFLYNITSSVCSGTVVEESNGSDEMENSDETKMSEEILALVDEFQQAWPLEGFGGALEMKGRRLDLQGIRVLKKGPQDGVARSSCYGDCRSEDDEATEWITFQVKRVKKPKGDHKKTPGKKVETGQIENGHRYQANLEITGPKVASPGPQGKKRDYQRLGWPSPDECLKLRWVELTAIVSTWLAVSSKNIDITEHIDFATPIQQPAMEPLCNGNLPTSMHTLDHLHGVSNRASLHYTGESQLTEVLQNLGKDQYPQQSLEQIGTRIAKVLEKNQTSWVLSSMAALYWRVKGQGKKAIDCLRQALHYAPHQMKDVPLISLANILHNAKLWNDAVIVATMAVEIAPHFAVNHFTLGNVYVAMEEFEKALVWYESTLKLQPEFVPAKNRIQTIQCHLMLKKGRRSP
UniProt Q15361: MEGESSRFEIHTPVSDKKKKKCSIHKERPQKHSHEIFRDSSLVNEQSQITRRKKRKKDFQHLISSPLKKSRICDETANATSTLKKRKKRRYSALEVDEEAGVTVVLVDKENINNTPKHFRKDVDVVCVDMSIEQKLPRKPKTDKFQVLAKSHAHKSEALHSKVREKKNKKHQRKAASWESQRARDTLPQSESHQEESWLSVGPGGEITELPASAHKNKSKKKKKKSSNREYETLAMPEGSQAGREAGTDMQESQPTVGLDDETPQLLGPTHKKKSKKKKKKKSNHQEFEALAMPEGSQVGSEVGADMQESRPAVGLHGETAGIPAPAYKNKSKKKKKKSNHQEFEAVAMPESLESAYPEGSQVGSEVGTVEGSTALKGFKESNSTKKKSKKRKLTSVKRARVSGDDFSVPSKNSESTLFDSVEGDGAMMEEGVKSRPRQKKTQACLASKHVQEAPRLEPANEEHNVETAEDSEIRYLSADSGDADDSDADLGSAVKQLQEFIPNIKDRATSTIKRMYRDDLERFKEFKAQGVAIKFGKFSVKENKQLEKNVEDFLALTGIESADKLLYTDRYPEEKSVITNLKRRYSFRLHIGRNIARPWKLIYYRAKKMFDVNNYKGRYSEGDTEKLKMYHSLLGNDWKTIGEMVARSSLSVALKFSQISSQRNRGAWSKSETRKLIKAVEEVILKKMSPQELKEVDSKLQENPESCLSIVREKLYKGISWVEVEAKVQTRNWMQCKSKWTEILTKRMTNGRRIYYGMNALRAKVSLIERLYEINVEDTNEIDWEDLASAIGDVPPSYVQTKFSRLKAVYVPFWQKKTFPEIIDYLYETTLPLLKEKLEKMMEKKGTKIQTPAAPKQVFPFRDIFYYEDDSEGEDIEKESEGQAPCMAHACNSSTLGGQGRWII
UniProt Q9H2G4: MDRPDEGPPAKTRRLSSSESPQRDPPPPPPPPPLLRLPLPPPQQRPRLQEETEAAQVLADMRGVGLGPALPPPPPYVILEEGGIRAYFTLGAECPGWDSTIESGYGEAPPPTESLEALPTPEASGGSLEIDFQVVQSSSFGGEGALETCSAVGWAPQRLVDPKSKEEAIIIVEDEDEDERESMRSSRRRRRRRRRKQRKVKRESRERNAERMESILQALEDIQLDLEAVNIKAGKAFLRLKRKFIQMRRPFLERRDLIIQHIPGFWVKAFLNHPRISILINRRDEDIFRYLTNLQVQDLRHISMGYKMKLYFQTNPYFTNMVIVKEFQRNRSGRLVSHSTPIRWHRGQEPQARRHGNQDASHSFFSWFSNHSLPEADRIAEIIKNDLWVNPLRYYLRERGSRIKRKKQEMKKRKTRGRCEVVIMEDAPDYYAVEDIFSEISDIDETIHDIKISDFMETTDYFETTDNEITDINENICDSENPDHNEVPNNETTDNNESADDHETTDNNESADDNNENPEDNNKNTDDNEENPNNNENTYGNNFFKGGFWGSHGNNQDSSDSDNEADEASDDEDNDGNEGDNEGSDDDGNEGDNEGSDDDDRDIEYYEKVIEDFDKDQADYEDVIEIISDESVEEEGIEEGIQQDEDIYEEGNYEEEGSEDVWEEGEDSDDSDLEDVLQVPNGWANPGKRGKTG
UniProt Q15714: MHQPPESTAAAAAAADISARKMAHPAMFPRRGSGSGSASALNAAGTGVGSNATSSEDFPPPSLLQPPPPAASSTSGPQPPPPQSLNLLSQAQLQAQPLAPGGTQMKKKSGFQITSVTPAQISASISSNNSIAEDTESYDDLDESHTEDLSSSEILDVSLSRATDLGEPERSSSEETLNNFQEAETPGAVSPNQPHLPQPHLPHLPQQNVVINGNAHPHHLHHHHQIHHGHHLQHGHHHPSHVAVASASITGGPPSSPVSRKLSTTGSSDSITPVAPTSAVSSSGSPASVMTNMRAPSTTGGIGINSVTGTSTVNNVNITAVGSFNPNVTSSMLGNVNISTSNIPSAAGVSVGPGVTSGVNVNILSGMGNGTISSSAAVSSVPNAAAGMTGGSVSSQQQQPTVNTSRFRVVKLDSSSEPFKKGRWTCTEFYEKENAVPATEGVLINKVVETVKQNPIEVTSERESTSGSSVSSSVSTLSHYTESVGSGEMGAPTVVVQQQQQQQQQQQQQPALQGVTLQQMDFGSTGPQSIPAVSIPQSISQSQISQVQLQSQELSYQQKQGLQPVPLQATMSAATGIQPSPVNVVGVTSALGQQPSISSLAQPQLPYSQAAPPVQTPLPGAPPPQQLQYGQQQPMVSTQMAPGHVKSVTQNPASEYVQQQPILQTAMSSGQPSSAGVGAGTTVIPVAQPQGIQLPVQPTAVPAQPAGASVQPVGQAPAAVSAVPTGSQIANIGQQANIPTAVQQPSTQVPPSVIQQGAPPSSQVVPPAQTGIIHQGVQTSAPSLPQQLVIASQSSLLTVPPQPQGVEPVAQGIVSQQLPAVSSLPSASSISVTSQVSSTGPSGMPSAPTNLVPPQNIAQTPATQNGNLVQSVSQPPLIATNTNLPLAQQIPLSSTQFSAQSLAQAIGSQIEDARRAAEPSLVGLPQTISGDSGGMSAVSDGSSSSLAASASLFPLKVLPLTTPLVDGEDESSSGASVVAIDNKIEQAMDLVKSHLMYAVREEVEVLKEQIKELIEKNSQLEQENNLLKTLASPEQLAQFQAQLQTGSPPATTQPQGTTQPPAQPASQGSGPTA
UniProt O00463: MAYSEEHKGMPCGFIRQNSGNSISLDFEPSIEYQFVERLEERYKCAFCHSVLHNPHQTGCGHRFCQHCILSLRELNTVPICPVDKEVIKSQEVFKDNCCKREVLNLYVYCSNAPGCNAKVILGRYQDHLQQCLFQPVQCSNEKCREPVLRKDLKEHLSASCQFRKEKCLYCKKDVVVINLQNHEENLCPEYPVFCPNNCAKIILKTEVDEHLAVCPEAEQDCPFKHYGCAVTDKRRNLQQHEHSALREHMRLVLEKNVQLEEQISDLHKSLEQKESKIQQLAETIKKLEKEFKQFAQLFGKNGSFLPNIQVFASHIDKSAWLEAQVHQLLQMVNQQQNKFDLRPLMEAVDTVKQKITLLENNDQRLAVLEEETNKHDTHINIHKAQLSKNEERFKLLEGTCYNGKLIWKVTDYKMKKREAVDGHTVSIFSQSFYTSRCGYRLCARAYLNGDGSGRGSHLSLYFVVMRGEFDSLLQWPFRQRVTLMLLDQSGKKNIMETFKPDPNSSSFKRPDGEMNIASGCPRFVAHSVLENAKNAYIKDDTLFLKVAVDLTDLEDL
UniProt Q9UJT2: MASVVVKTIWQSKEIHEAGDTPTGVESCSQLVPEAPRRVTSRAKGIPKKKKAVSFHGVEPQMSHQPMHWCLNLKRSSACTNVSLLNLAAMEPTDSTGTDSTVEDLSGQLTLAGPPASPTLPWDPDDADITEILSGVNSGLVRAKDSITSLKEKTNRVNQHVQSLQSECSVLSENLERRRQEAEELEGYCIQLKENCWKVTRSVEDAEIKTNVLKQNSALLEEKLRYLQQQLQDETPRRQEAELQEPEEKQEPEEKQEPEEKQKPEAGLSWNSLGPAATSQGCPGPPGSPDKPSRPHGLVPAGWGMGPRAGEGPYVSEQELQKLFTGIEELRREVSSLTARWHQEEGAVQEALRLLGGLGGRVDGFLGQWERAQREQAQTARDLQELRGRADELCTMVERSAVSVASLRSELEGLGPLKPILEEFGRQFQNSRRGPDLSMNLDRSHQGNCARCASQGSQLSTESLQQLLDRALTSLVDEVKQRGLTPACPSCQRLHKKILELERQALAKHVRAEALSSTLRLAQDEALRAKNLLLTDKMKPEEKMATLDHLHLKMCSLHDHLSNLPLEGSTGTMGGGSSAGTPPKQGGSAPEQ
UniProt Q99576: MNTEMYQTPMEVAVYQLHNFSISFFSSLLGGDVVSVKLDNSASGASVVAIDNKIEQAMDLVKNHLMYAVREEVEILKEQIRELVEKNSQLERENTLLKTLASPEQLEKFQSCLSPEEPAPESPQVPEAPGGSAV
UniProt Q6PF06: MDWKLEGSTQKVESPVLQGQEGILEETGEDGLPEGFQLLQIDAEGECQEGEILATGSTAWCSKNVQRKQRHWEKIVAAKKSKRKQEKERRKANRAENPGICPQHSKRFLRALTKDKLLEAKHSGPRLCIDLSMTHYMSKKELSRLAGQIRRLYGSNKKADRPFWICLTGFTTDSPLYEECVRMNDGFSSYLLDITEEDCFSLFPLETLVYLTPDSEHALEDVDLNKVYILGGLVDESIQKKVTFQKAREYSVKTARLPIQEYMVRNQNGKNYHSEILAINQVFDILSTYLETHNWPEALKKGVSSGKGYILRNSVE
UniProt O14817: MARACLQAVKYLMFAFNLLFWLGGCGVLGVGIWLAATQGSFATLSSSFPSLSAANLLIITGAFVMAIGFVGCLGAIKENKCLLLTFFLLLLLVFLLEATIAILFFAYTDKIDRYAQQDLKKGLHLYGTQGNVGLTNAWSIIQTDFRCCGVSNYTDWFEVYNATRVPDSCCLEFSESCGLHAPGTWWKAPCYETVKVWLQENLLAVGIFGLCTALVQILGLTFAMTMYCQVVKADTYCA

How the values were obtained:
Experiment in all cases: log2 fold change, soluble protein after heating vs DMSO (PISA); higher = thermal stabilisation; K562 lysate, 10 uM; active = over 0.2 and 3.5 SD of the protein, either way, in both replicates (recomputed)
[1] = compound: CCn1cc(-c2ccnc3[nH]c(-c4cccc(CN(C)C)c4)cc23)c(-c2ccc(NC(=O)N(C)C)cc2)n1
How it was run: (§1)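 Soluble protein was defined as the supernatant remaining after 21,000xg for 90 min, following pooling of heated aliquots and adjustment to 0.5% NP-40 at 4°C. Before that, crude K562 extract at 1 mg/mL protein in PBS pH 7.4 with 1 mM MgCl2 was treated with 10 μM compound for 30 min and heated for 3 min across 48°C-58°C. Quantification used TMTpro 16plex LC-MS/MS with channel sums equalised, and values are log-two fold changes in thermal stability relative to solvent controls from duplicates.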

[2] = compound: CN1CCC(CNc2ccc3ncc(-c4cccc(OC(F)(F)F)c4)n3n2)CC1
How it was run: as §1

ralimetinib = compound: CC(C)(C)Cn1c(N)nc2ccc(-c3[nH]c(C(C)(C)C)nc3-c3ccc(F)cc3)nc21 [ralimetinib]
How it was run: as §1

[3] = compound: CC(C)(O)CC(=O)NCCn1ccc2ncnc(Nc3ccc(Oc4cccc(C(F)(F)F)c4)c(Cl)c3)c21
How it was run: as §1

[4] = compound: CC(C)C1=C2N=C(C=C(N2N=C1)NCC3=CC=CC=C3)NCCCCCCN
How it was run: as §1

[5] = compound: CC1=C(C(CC(=O)N1)C2=CC=C(C=C2)C(F)(F)F)C(=O)NC3=C(C=C4C(=C3)C=NN4)F
How it was run: as §1

[6] = compound: CC1=C(C2=C(C=C1)C(=O)C3=CC=CC=C3N2CCCN)C
How it was run: as §1

[7] = compound: CC1=C(C=C(C=C1)NC(=O)C2=CC(=CC=C2)N(C)C)NC(=O)C3=CC=C(C=C3)O
How it was run: as §1

[8] = compound: CCn1c(C(=O)N(C2CC2)C2CC2)cc2c3c(ncn3C)c(Nc3cc(C)n(C)n3)nc21
How it was run: as §1

saracatinib = compound: CN1CCN(CCOc2cc(OC3CCOCC3)c3c(Nc4c(Cl)ccc5c4OCO5)ncnc3c2)CC1 [saracatinib]
How it was run: as §1

[9] = compound: CC[C@@H]1C(=O)N(C)c2cnc(Nc3ccc(C(=O)NC4CCN(C)CC4)cc3OC)nc2N1C1CCCC1
How it was run: as §1

[10] = compound: CC1=C(C=C(C=C1)NC(=O)C2=CC(=CC=C2)C(C)(C)C#N)NC3=CC4=C(C=C3)N=CN(C4=O)C
How it was run: as §1

sotrastaurin = compound: CN1CCN(c2nc(C3=C(c4c[nH]c5ccccc45)C(=O)NC3=O)c3ccccc3n2)CC1 [sotrastaurin]
How it was run: as §1

vemurafenib = compound: CCCS(=O)(=O)Nc1ccc(F)c(C(=O)c2c[nH]c3ncc(-c4ccc(Cl)cc4)cc23)c1F [vemurafenib]
How it was run: as §1

Measured: log2 fold change

TTC17 isoform 2 (UniProt Q96AE7)
inactive: [1] -0.064 | [2] 0.026

TTC3 (UniProt P53804)
inactive: ralimetinib 0.212 | [3] 0.147 | [4] 0.04 | [5] 0.034 | [6] 0.087 | [7] -0.031 | [8] 0.201 | saracatinib -0.041

TTF1 (UniProt Q15361)
inactive: [5] 0.065 | [9] 0.087

TSPYL2 (UniProt Q9H2G4)
inactive: [4] 0.068 | [5] -0.079 | [6] -0.258 | [10] 0.108 | [9] 0.051 | [1] -0.028 | [2] 0.037 | saracatinib 0.072 | sotrastaurin 0.099

TSC22D1 isoform 2 (UniProt Q15714)
inactive: ralimetinib 0.314 | [3] 0.003 | [10] 0.053 | [7] -0.183 | [9] -0.133 | [8] 0.083 | sotrastaurin 0.09

TRAF5 isoform 2 (UniProt O00463)
inactive: ralimetinib -0.219 | [3] -0.296 | [4] 0.08 | [7] 0.053 | [9] -0.052 | [8] -0.318

TSKS (UniProt Q9UJT2)
inactive: ralimetinib -0.045 | [3] 0.047 | [4] 0 | [6] -0.073 | [10] 0.033 | [7] 0.025 | vemurafenib -0.078 | [9] 0.068 | [8] -0.062 | [1] 0.191 | [2] -0.142 | saracatinib -0.021 | sotrastaurin -0.016

TSC22D3 isoform 3 (UniProt Q99576)
inactive: ralimetinib 0.29 | [3] -0.184 | [4] -0.049 | [10] 0.143 | [7] 0.175 | [8] -0.272 | sotrastaurin -0.132

TRMT10B (UniProt Q6PF06)
inactive: ralimetinib -0.058 | [3] -0.18 | [7] 0.161 | [8] 0.196 | [1] -0.023 | [2] 0.077

Quoted from above (2 entries):
TSPYL2 (UniProt Q9H2G4)
inactive: [4] 0.068 | [5] -0.079 | [6] -0.258 | [10] 0.108 | [9] 0.051 | [1] -0.028 | [2] 0.037 | saracatinib 0.072 | sotrastaurin 0.099

TSC22D1 isoform 2 (UniProt Q15714)
inactive: ralimetinib 0.314 | [3] 0.003 | [10] 0.053 | [7] -0.183 | [9] -0.133 | [8] 0.083 | sotrastaurin 0.09

The listing continues:

TSPAN4 (UniProt O14817)
inactive: ralimetinib 0.19 | [3] -0.136 | [4] 0.007 | [10] -0.071 | [7] -0.069 | vemurafenib -0.108 | [9] 0.094 | [8] -0.13 | sotrastaurin 0.068
